# PubChem BioAssay AID1053208 – Peter MacCallum Cancer Centre | 2014
# Screen: 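Synthetic lethal interactions between gene loss and doxorubicin in osteosarcoma cells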 (primary screen)
# Cell system: mouse osteosarcoma cells, early-passage culture from an engineered mouse model of fibroblastic bone tumour
# Knock-down reagent: siRNA pool against mouse genes, 40 nM
# Timing: about 120 h (48 h before drug, then 72 h with drug)
# Treatment: doxorubicin 100 nM for 72 h, roughly 30-40% inhibitory dose
# Measurement: 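Luminescent ATP signal taken as viability with or without 100 nM doxorubicin for 72 h; mean of two wells set against non-targeting siRNA and turned into robust z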
# Reading the numbers: viability z-score with doxorubicin: higher = more viable cells under doxorubicin; viability z-score without drug: higher = more viable cells with knock-down alone
# Rule for the call: 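a pool counts as active when its viability z-score with doxorubicin is -2 or below and its z-score without drug lies between -2 and 2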
# The deposit covers about 17,000 reagents; below is an unselected part. Over the whole deposit, 788 (4.7%) got an active call. 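Calls rest on z-score classes alone; an extra cut-off of viability at most 70% of control was not applied to them.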 Unmarked entries are inactive. The numbers tell different reagents against one gene apart. Not all columns of the deposit are shown.
gene,reagent,combined z-score class,viability z-score with doxorubicin,viability z-score without drug
Dpys (dihydropyrimidinase),1,no change with or without drug,-0.79,-0.84
Krt222 (keratin 222),1,no change with or without drug,-0.22,-0.84
"Musk (muscle, skeletal, receptor tyrosine kinase)",1,no change with or without drug,0,-0.51
Hnrnpl (heterogeneous nuclear ribonucleoprotein L),1,no change with or without drug,-0.45,0
Sit1 (suppression inducing transmembrane adaptor 1),1,no change with or without drug,0,0.17
Bicdl2 (BICD family like cargo adaptor 2),1,no change with or without drug,0.45,-0.51
Actl7b (actin-like 7b),1,low cell count with doxorubicin only (active),-2.02,0.17
Oog4 (oogenesin 4),1,no change with or without drug,-0.45,0.84
Adissp (adipose secreted signaling protein),1,no change with or without drug,0,0.17
Hapln1 (hyaluronan and proteoglycan link protein 1),1,no change with or without drug,0.22,1.01
Or8b1 (olfactory receptor family 8 subfamily B member 1),1,high cell count with doxorubicin only,2.36,1.85
Epb42 (erythrocyte membrane protein band 4.2),1,no change with or without drug,-1.12,-0.51
Zfp653 (zinc finger protein 653),1,no change with or without drug,-0.67,0.84
Ipmk (inositol polyphosphate multikinase),1,no change with or without drug,1.12,-0.84
Pik3c3 (phosphatidylinositol 3-kinase catalytic subunit type 3),1,no change with or without drug,-1.12,-0.84
Plk1 (polo like kinase 1),1,low cell count with and without drug,-4.16,-2.02
Trim13 (tripartite motif-containing 13),1,no change with or without drug,-0.9,1.18
Fbxw16 (F-box and WD-40 domain protein 16),1,no change with or without drug,0.11,0.51
Sar1a (secretion associated Ras related GTPase 1A),1,no change with or without drug,-0.34,-0.17
B230354K17Rik (RIKEN cDNA B230354K17 gene),1,no change with or without drug,0,-0.17
Togaram2 (TOG array regulator of axonemal microtubules 2),1,high cell count with doxorubicin only,2.25,-0.34
Rras2 (RAS oncogene related 2),1,no change with or without drug,-0.45,-0.17
Star (steroidogenic acute regulatory protein),1,no change with or without drug,0,0.84
Foxb2 (forkhead box B2),1,no change with or without drug,0.79,0.51
"Pcdhgb2 (protocadherin gamma subfamily B, 2)",1,low cell count with doxorubicin only (active),-2.92,-1.18
Vmn1r210 (vomeronasal 1 receptor 210),1,no change with or without drug,1.01,1.85
"Ppp1r16b (protein phosphatase 1, regulatory subunit 16B)",1,no change with or without drug,0.45,-0.17
Mdn1 (midasin AAA ATPase 1),1,no change with or without drug,-0.45,0.67
"Mob4 (MOB family member 4, phocein)",1,low cell count with and without drug,-2.36,-2.19
Tprg1l (transformation related protein 63 regulated 1 like),1,no change with or without drug,-0.67,1.85
Ccz1 (CCZ1 vacuolar protein trafficking and biogenesis associated),1,no change with or without drug,-1.69,0.17
4933427D06Rik (RIKEN cDNA 4933427D06 gene),1,no change with or without drug,-0.9,-1.01
Rps6kl1 (ribosomal protein S6 kinase-like 1),1,no change with or without drug,1.57,0.17
"Atp6ap2 (ATPase, H+ transporting, lysosomal accessory protein 2)",1,no change with or without drug,-1.01,-1.01
Tspan31 (tetraspanin 31),1,no change with or without drug,0.22,1.18
"Itpr2 (inositol 1,4,5-triphosphate receptor 2)",1,no change with or without drug,0.22,-0.34
Actr3 (ARP3 actin-related protein 3),1,no change with or without drug,-0.45,-1.18
Fmn2 (formin 2),1,no change with or without drug,1.8,1.52
Nck2 (non-catalytic region of tyrosine kinase adaptor protein 2),1,no change with or without drug,0.9,-1.35
Mc3r (melanocortin 3 receptor),1,no change with or without drug,0.22,0.84
Rundc3a (RUN domain containing 3A),1,no change with or without drug,0.22,-0.51
"Zcchc7 (zinc finger, CCHC domain containing 7)",1,no change with or without drug,0.67,-1.52
"Zcchc7 (zinc finger, CCHC domain containing 7)",2,no change with or without drug,-0.22,0
Meltf (melanotransferrin),1,low cell count with doxorubicin only (active),-4.5,-1.85
Or2d2 (olfactory receptor family 2 subfamily D member 2),1,no change with or without drug,-1.35,-0.84
Spcs1 (signal peptidase complex subunit 1 homolog (S. cerevisiae)),1,no change with or without drug,0.22,1.35
Slc25a46,1,no change with or without drug,-1.24,-0.51
"Polb (polymerase (DNA directed), beta)",1,no change with or without drug,0.79,0.34
"Plat (plasminogen activator, tissue)",1,high cell count without drug only,1.35,2.19
Zfp623 (zinc finger protein 623),1,high cell count without drug only,0.56,2.19

Records above whose gene name begins with I or i:
gene,reagent,combined z-score class,viability z-score with doxorubicin,viability z-score without drug
Ipmk (inositol polyphosphate multikinase),1,no change with or without drug,1.12,-0.84
"Itpr2 (inositol 1,4,5-triphosphate receptor 2)",1,no change with or without drug,0.22,-0.34
